For the assay, the target named is T1, endogenous FADD (mouse (endogenous in MEFs)) (UniProt Q61160).
T1 sequence: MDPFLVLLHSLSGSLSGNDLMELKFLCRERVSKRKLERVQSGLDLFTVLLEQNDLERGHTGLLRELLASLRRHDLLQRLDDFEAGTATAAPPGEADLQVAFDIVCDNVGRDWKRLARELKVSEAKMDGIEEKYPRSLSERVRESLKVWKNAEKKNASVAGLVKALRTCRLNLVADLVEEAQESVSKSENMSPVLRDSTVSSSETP
Description: co-IP.

These are yes or no findings as the source states them, for the method shown. In cells and extracts the contact can be indirect. Some results given as binding are weak or reduced against the parent protein; the word gives no strength.

B1: endogenous mouse N4BP1 (NEDD4-binding protein 1) (protein, UniProt Q6A037 1-893)
chain: MAARVVLDEFTAPAEKAALLERSRGRIEALFGVGLAVLGALGAEEPLPARIWLQLRGAQEAVHSAKEYIKGICEPELEEKECYPKAMHCIFVGAQSLFLKSLIQDTCADLCVLDTGLLGIRGSAEAVVMARSHIQQFVKLFESNENLPSNQRESEIKREFRQFVEAHADSYTMDLLILPTSLKKELLSLTQGEESLFETDDDVITVGDVRPPEYTQSAATGPSSARDEVVVQEDSRNKARTPVSELTKHMDTVFSSSPDVLFVPVNGLSPDEDALSKDRVCHKRRSSDTEERHTKKQFSLENVPEGELLPDGKGSAGNEVIDLSDPASNSTNLSPDGKDTTEEMEYNILVNFFKTMGYSQEIVEKVIREYGPSTEPLLLLEEIEKENKRLQEDRDFPPCTVYPDASQSRNAGVGSTTNELTADSTPKKAQSHTEQSMVERFSQLPFKDSKHCTSNCKVNSFRTVPVGQKQEIWGSKQNSSCTVDLETDGHSASAASASPKDISFVSRGASGHQQRNPAFPENGFQQQTEPLLPNNTKPACEKRSGSCSSPQPKPNYPPLSPPLPLPQLLPSVTEARLGGSSDHIDSSVTGVQRFRDTLKIPYKLELKNEPGRADLKHIVIDGSNVAITHGLKKFFSCRGIAIAVEYFWKLGNRNITVFVPQWRTRRDPNITEQHFLTQLQELGILSLTPARMVFGERIASHDDRFLLHLADKTGGIIVTNDNFREFVTESVSWREIITKRLLQYTFVGDIFMVPDDPLGRNGPRLEEFLRKEAFLRHMQPLLNALPSVGTFDPGFRSPSTQVANNSHQPPPRIQTSSSPWLPQQSHFTALATLPSMQQNPPLPAQRSSAETSELREALLKIFPDSEQKLKIDQILAAHPYMKDLNALSALVLD
For B1, the binding result is reported as “binds”.

Values taken from doi:10.1101/2021.11.02.466974.
